According to paper doi:10.1101/2024.09.30.615192:
Like-named read-outs stand apart in the source and are kept apart here. These are yes or no findings as the source states them, for the method shown. Binding seen in cells or lysates may run through a third protein. These calls come from enrichment with a bait or labelling near it, and not all partners need be listed. Each block holds one molecule with its values, some of them ahead of it.

Protein sequences, listed by entry. Tags and fused reporters are not part of them.
UniProt Q9UM01: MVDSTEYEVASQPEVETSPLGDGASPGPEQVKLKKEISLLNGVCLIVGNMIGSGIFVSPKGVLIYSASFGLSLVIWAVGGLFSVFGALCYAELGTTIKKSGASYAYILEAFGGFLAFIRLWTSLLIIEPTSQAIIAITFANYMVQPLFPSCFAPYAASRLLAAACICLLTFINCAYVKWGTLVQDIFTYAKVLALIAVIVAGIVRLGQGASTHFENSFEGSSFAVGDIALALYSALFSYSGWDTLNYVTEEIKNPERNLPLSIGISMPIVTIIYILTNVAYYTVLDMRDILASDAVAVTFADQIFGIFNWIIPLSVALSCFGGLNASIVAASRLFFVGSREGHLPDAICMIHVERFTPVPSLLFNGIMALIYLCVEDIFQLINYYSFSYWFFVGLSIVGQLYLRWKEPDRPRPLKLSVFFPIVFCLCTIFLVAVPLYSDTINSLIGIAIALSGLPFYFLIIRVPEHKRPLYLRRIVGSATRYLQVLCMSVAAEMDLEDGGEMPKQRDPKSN
UniProt Q9UHI7: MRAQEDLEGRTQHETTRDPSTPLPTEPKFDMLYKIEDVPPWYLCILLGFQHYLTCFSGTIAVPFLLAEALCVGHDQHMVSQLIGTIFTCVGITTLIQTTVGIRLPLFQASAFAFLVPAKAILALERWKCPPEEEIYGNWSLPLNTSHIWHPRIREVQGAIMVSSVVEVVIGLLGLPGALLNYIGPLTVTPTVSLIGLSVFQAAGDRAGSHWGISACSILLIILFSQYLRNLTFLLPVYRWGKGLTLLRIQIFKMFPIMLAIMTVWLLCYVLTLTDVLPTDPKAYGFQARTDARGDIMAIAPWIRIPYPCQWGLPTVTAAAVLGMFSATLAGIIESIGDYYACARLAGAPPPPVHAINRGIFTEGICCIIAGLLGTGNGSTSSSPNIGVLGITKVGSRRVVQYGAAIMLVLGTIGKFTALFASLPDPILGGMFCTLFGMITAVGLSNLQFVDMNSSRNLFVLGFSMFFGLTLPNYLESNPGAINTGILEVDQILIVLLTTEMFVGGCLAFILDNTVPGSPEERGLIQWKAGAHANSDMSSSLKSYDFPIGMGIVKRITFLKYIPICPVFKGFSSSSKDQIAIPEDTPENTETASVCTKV
UniProt Q10471: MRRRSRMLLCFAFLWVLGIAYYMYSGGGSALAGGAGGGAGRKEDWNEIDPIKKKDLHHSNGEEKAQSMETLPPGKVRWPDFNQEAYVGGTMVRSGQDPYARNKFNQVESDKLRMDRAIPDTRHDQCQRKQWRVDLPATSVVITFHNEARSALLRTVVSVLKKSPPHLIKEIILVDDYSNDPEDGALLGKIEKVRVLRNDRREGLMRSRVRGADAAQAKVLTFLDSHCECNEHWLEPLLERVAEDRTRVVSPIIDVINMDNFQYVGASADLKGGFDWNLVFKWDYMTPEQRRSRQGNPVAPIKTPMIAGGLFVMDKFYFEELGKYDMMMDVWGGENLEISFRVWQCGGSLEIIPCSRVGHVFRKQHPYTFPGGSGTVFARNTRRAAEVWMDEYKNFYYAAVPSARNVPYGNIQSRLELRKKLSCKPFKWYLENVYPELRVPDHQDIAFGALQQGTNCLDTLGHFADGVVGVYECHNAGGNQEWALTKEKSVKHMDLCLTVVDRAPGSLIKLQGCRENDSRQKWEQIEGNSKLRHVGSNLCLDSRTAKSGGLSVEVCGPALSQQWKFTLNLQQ
UniProt Q8N4N3: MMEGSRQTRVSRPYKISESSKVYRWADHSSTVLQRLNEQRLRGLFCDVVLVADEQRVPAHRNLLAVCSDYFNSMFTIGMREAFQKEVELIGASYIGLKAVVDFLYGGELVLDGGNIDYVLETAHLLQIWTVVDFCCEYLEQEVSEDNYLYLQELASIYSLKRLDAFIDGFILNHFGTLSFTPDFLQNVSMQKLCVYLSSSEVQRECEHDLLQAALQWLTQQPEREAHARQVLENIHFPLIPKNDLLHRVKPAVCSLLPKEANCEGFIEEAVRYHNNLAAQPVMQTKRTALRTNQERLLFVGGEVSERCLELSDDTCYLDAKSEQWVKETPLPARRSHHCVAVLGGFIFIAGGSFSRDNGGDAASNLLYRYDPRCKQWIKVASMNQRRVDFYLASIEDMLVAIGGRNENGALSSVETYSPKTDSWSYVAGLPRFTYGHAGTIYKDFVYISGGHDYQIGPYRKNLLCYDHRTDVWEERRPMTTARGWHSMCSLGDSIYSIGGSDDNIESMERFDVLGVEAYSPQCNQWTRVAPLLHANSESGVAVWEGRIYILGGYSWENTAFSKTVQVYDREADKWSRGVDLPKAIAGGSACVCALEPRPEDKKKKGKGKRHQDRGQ
UniProt Q86TM6: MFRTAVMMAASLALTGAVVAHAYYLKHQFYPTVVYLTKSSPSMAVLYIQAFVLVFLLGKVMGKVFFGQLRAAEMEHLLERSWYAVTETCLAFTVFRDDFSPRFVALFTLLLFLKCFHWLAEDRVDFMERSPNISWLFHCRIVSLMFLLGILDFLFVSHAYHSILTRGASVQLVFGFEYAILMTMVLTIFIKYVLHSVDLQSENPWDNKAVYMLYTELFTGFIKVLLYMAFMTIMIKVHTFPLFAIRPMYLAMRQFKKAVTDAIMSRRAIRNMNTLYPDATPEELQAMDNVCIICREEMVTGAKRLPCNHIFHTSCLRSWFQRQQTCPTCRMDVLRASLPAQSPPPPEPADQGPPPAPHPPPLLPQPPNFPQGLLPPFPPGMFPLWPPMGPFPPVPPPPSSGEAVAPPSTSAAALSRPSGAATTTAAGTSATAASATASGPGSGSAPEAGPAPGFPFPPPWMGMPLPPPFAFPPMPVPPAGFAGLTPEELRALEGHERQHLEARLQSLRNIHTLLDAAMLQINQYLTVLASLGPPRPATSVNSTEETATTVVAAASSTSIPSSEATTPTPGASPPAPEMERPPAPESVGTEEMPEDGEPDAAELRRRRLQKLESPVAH

Assays:
Experiment in all cases: affinity purification with mass spectrometry
SLC7A7 (human) = SLC7A7 (human) (UniProt Q9UM01)
SLC23A1 (human) = SLC23A1 (human) (UniProt Q9UHI7)
SLC6A17 (human) = target: T1, SLC6A17 (human) (UniProt Q9H1V8)
T1 sequence: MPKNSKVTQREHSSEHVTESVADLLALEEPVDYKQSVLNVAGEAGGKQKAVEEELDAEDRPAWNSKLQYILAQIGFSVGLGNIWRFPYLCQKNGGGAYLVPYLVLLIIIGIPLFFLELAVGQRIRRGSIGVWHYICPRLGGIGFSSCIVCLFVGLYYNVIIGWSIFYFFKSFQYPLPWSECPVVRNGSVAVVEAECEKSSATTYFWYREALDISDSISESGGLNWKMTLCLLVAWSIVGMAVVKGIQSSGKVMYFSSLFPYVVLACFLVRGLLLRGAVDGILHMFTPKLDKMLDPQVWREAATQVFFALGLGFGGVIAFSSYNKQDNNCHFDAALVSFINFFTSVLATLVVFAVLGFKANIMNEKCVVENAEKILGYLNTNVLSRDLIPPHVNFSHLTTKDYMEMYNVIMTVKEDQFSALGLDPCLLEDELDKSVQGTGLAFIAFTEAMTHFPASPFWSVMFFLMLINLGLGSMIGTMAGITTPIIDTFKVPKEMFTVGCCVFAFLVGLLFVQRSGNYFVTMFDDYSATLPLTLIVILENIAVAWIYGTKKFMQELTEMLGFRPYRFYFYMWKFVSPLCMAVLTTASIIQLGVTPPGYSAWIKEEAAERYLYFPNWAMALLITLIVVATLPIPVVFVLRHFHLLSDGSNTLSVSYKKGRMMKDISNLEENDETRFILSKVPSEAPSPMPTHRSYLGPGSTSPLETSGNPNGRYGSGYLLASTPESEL

SLC6A15 (human) [1] = target: T2, SLC6A15 (human) (UniProt Q9H2J7)
T2 sequence: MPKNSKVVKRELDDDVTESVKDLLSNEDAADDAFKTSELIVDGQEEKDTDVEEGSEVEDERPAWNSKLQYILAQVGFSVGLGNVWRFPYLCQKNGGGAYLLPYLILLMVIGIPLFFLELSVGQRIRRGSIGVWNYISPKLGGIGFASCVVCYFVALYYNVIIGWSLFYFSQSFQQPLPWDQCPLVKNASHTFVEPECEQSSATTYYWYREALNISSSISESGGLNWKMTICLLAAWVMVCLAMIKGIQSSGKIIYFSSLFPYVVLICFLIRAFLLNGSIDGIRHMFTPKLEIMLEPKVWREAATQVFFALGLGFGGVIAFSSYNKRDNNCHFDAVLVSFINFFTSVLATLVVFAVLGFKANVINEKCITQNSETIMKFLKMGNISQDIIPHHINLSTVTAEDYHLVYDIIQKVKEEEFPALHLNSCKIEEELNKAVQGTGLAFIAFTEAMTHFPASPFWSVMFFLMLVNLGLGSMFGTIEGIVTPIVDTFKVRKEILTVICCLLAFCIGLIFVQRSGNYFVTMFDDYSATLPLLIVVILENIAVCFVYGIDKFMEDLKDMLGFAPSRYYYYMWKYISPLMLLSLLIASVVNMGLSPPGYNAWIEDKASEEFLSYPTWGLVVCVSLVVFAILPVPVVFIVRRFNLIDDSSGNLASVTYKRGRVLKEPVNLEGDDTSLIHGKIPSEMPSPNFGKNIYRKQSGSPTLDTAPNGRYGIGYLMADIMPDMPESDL

SLC31A1 (human) = target: T3, SLC31A1 (human) (UniProt O15431)
T3 sequence: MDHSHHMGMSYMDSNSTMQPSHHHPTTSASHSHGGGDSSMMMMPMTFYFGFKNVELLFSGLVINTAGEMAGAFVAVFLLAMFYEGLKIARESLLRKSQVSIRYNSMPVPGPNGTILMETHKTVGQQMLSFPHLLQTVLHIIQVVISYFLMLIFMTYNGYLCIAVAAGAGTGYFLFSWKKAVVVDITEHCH

SLC6A15 (human) [2] = target: T2, SLC6A15 (human); remark: listed apart in the source
SLC43A2 (human) = SLC43A2 (human) (UniProt Q8N370)

binding (SLC7A7 (human)): binds
Molecule: amino acid transporter heavy chain (SLC3A2) (from UniProt P08195 1-529)

binding (SLC23A1 (human)): binds
Molecule: GalNAc transferase GALNT2 (from UniProt Q10471 1-571)

binding (SLC6A17 (human)): binds
binding (SLC6A15 (human) [1]): binds
Molecule: KLHL36 (from UniProt Q8N4N3 1-616)

binding (SLC23A1 (human)): binds
Molecule: ubiquitin ligase SYVN1 (from UniProt Q86TM6 1-617)

binding (SLC31A1 (human)): binds
B1: WDR6 (protein, UniProt Q9NNW5 1-1121)
chain: MDALEDYVWPRATSELILLPVTGLECVGDRLLAGEGPDVLVYSLDFGGHLRMIKRVQNLLGHYLIHGFRVRPEPNGDLDLEAMVAVFGSKGLRVVKISWGQGHFWELWRSGLWNMSDWIWDARWLEGNIALALGHNSVVLYDPVVGCILQEVPCTDRCTLSSACLIGDAWKELTIVAGAVSNQLLVWYPATALADNKPVAPDRRISGHVGIIFSMSYLESKGLLATASEDRSVRIWKVGDLRVPGGRVQNIGHCFGHSARVWQVKLLENYLISAGEDCVCLVWSHEGEILQAFRGHQGRGIRAIAAHERQAWVITGGDDSGIRLWHLVGRGYRGLGVSALCFKSRSRPGTLKAVTLAGSWRLLAVTDTGALYLYDVEVKCWEQLLEDKHFQSYCLLEAAPGPEGFGLCAMANGEGRVKVVPINTPTAAVDQTLFPGKVHSLSWALRGYEELLLLASGPGGVVACLEISAAPSGKAIFVKERCRYLLPPSKQRWHTCSAFLPPGDFLVCGDRRGSVLLFPSRPGLLKDPGVGGKARAGAGAPVVGSGSSGGGNAFTGLGPVSTLPSLHGKQGVTSVTCHGGYVYTTGRDGAYYQLFVRDGQLQPVLRQKSCRGMNWLAGLRIVPDGSMVILGFHANEFVVWNPRSHEKLHIVNCGGGHRSWAFSDTEAAMAFAYLKDGDVMLYRALGGCTRPHVILREGLHGREITCVKRVGTITLGPEYGVPSFMQPDDLEPGSEGPDLTDIVITCSEDTTVCVLALPTTTGSAHALTAVCNHISSVRAVAVWGIGTPGGPQDPQPGLTAHVVSAGGRAEMHCFSIMVTPDPSTPSRLACHVMHLSSHRLDEYWDRQRNRHRMVKVDPETRYMSLAVCELDQPGLGPLVAAACSDGAVRLFLLQDSGRILQLLAETFHHKRCVLKVHSFTHEAPNQRRRLLLCSAATDGSLAFWDLTTMLDHDSTVLEPPVDPGLPYRLGTPSLTLQAHSCGINSLHTLPTREGHHLVASGSEDGSLHVFVLAVEMLQLEEAVGEAGLVPQLRVLEEYSVPCAHAAHVTGLKILSPSIMVSASIDQRLTFWRLGHGEPTFMNSTVFHVPDVADMDCWPVSPEFGHRCALGGQGLEVYNWYD

binding (SLC6A15 (human) [2]): binds
B2: GOLGA5 (protein, UniProt Q8TBA6 1-731)
chain: MSWFVDLAGKAEDLLNRVDQGAATALSRKDNASNIYSKNTDYTELHQQNTDLIYQTGPKSTYISSAADNIRNQKATILAGTANVKVGSRTPVEASHPVENASVPRPSSHFVRRKKSEPDDELLFDFLNSSQKEPTGRVEIRKEKGKTPVFQSSQTSSVSSVNPSVTTIKTIEENSFGSQTHEAASNSDSSHEGQEESSKENVSSNAACPDHTPTPNDDGKSHELSNLRLENQLLRNEVQSLNQEMASLLQRSKETQEELNKARARVEKWNADHSKSDRMTRGLRAQVDDLTEAVAAKDSQLAVLKVRLQEADQLLSTRTEALEALQSEKSRIMQDQSEGNSLQNQALQTFQERLHEADATLKREQESYKQMQSEFAARLNKVEMERQNLAEAITLAERKYSDEKKRVDELQQQVKLYKLNLESSKQELIDYKQKATRILQSKEKLINSLKEGSGFEGLDSSTASSMELEELRHEKEMQREEIQKLMGQIHQLRSELQDMEAQQVNEAESAREQLQDLHDQIAGQKASKQELETELERLKQEFHYIEEDLYRTKNTLQSRIKDRDEEIQKLRNQLTNKTLSNSSQSELENRLHQLTETLIQKQTMLESLSTEKNSLVFQLERLEQQMNSASGSSSNGSSINMSGIDNGEGTRLRNVPVLFNDTETNLAGMYGKVRKAASSIDQFSIRLGIFLRRYPIARVFVIIYMALLHLWVMIVLLTYTPEMHHDQPYGK

binding (SLC43A2 (human)): binds
B3: MPP1 (protein, UniProt Q00013 1-466)
chain: MTLKASEGESGGSMHTALSDLYLEHLLQKRSRPEAVSHPLNTVTEDMYTNGSPAPGSPAQVKGQEVRKVRLIQFEKVTEEPMGITLKLNEKQSCTVARILHGGMIHRQGSLHVGDEILEINGTNVTNHSVDQLQKAMKETKGMISLKVIPNQQSRLPALQMFMRAQFDYDPKKDNLIPCKEAGLKFATGDIIQIINKDDSNWWQGRVEGSSKESAGLIPSPELQEWRVASMAQSAPSEAPSCSPFGKKKKYKDKYLAKHSSIFDQLDVVSYEEVVRLPAFKRKTLVLIGASGVGRSHIKNALLSQNPEKFVYPVPYTTRPPRKSEEDGKEYHFISTEEMTRNISANEFLEFGSYQGNMFGTKFETVHQIHKQNKIAILDIEPQTLKIVRTAELSPFIVFIAPTDQGTQTEALQQLQKDSEAIRSQYAHYFDLSLVNNGVDETLKKLQEAFDQACSSPQWVPVSWVY

binding (SLC31A1 (human)): binds
B4: syntaxin-7 (protein, UniProt O15400 1-261)
chain: MSYTPGVGGDPAQLAQRISSNIQKITQCSVEIQRTLNQLGTPQDSPELRQQLQQKQQYTNQLAKETDKYIKEFGSLPTTPSEQRQRKIQKDRLVAEFTTSLTNFQKVQRQAAEREKEFVARVRASSRVSGSFPEDSSKERNLVSWESQTQPQVQVQDEEITEDDLRLIHERESSIRQLEADIMDINEIFKDLGMMIHEQGDVIDSIEANVENAEVHVQQANQQLSRAADYQRKSRKTLCIIILILVIGVAIISLIIWGLNH
